Measured values: PMC7819943, “Rice protein-binding microarrays: a tool to detect cis-acting elements near promoter regions in rice”
The other results are listed elsewhere or left out.

Biological target: T1, OsSMF1 (Oryza sativa, UniProt Q6ZLB0 1-436)
T1 sequence: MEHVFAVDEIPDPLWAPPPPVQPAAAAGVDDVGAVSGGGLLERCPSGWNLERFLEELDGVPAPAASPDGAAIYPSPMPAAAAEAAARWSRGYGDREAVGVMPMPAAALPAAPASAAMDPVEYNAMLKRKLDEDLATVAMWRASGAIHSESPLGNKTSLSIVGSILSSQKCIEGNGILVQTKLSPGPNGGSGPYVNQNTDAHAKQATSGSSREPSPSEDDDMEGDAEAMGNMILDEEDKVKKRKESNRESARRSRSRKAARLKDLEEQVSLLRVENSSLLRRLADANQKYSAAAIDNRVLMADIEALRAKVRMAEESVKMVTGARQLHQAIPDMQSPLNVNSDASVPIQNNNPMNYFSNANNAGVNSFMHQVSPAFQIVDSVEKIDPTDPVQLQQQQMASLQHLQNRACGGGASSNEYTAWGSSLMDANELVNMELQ
Assay: protein-binding microarray (RPBM); PBS, 2% BSA, 51.3 ng/ul salmon testes DNA, 50 uM zinc acetate, 200 nM TF, 25 C, 1 h; high values mean tight binding
Conditions: protein: recombinant; tags: N-terminal polyhistidine and DsRed monomer fusion (pET32a); chain copies: 2; label: CyDye5-dUTP incorporated in the synthesized complementary strand; 3' TTTTT single-stranded linker to array surface; dsDNA, one strand shown
In short: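 Binding signal is reported as fluorescence intensity per feature (arbitrary units) from an Axon 4000B scanner. Incubation used 200 nM of each Ni–NTA-purified, N-terminally polyhistidine- and DsRed-fused transcription factor from E. coli BL21-CodonPlus on a double-stranded custom Agilent array for 1 h at 25 °C, with 50 µM zinc acetate in the buffer, followed by washing.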

Row | Sequence | binding signal
1 | AAGCAAGCGTACTATAGTTCAGCTATAAATAGCAGATGACCGGAGTCACCTAGTGCAG | 3250 fluorescence intensity (a.u.)
2 | ATCCATCCTCCGGAGCAAACATGACACATTGACGATCTCCCGGAGTCACCTAGTGCAG | 5140 fluorescence intensity (a.u.)
3 | CGACATTAAAGATTATGAATATTATGGGCAAATATAGGTCCGGAGTCACCTAGTGCAG | 57600 fluorescence intensity (a.u.)
4 | GCAGCGGCGGCTTGCTTCCGAAGCGAGCAATGCATGGCGCCGGAGTCACCTAGTGCAG | 3380 fluorescence intensity (a.u.)
5 | CCTCTGAACTCTCTGGTAGCCATGGTGACAACATCAATCGCGGAGTCACCTAGTGCAG | 3520 fluorescence intensity (a.u.)
6 | ATGATGAGTAGGAGTTTGTGCAGGTGGACGGCGGTGGTGGCGGAGTCACCTAGTGCAG | 3180 fluorescence intensity (a.u.)
7 | GCGGTGCAACGGTGGCTACAGCGTCCAGGTTGTCGTGATGCGGAGTCACCTAGTGCAG | 4410 fluorescence intensity (a.u.)
8 | ATATTTATAATTAGTGTCCAAACATCCGATGTGACAGGGACGGAGTCACCTAGTGCAG | 4920 fluorescence intensity (a.u.)
9 | GCGTGAGTGCGGAAAACGAGGGGAGGGGTTGGGAACTTGACGGAGTCACCTAGTGCAG | 3300 fluorescence intensity (a.u.)
10 | GCAGTCCCGGGTCACTGACCGTTTTGACCACCGGTGACCTCGGAGTCACCTAGTGCAG | 4360 fluorescence intensity (a.u.)
11 | ACAGTAACCCACATGTGCTAATGACGGATTAATTAGGCTTCGGAGTCACCTAGTGCAG | 4110 fluorescence intensity (a.u.)
12 | ACACGAGACCCCATCCGCACGTCACCCTCCACGTCATGGACGGAGTCACCTAGTGCAG | 31600 fluorescence intensity (a.u.)
13 | GAAAGTGAAGCCTGTGGCGCACACGACACGACCTCCTCAACGGAGTCACCTAGTGCAG | 3320 fluorescence intensity (a.u.)
14 | CTGTCGCTTTAGCTCCTGAAACAAATGACACCACTGCTAGCGGAGTCACCTAGTGCAG | 3180 fluorescence intensity (a.u.)
15 | ATCAGCTCGCCCTCCTTAGCGTGACATAGAGCTTTCCACTCGGAGTCACCTAGTGCAG | 3170 fluorescence intensity (a.u.)
16 | TCCACTGACTCCGGGTGTTGGTTTGAATCATACGTAGACGCGGAGTCACCTAGTGCAG | 4040 fluorescence intensity (a.u.)
17 | TTTCTGCTGTAGTTTACAATGACTAAGCTAATAACCTTTGCGGAGTCACCTAGTGCAG | 3610 fluorescence intensity (a.u.)
18 | GTCAGCGCCAACTTACTTGGCGCTGAGGTTGTGCACCTCACGGAGTCACCTAGTGCAG | 3160 fluorescence intensity (a.u.)
19 | ATTTCTTTAGATTTGATGACTATAGCACCTTCGTTCCATACGGAGTCACCTAGTGCAG | 3610 fluorescence intensity (a.u.)
20 | TCCAGCCACGCCCGCGCTCCCTCCCACTTCCCCGCCATTACGGAGTCACCTAGTGCAG | 3150 fluorescence intensity (a.u.)
21 | AGGATGCAAACAGGTCAGAGTGATGTGTTACTTCCAAGGCCGGAGTCACCTAGTGCAG | 8160 fluorescence intensity (a.u.)

Row | Sequence | binding signal
22 | TGTCGCTTTCTCGTAGTCATGTTCGTGAATCATGGATGTGCGGAGTCACCTAGTGCAG | 4590 fluorescence intensity (a.u.)
23 | TGCAGCGAGGCCGGCGTGTTGCCACGGTGGATCTGTGAATCGGAGTCACCTAGTGCAG | 8000 fluorescence intensity (a.u.)
24 | CTTCTTCGGATCACTCGGTTGGTTTCTTGGTTTCTTGGTTCGGAGTCACCTAGTGCAG | 3140 fluorescence intensity (a.u.)
25 | ATTATCCTCGTCGGTCGCCGGCACGCCGCAACGTCAGCCCCGGAGTCACCTAGTGCAG | 6820 fluorescence intensity (a.u.)
26 | CCCCGCCGTCCATCCACCTCACCGACGGCCGGATGCGCCCCGGAGTCACCTAGTGCAG | 3810 fluorescence intensity (a.u.)
27 | GTTGGTTTGATGTTGGTTTTGGTCCTACGTGGCGTATCAGCGGAGTCACCTAGTGCAG | 21400 fluorescence intensity (a.u.)
28 | GTTGCGGTCGTCGTCCACCTCCGCCGCCTCTTCGCCATCTCGGAGTCACCTAGTGCAG | 3330 fluorescence intensity (a.u.)
29 | CCCTTTCGGACCCTCGTCACTCATCGTCGTTTGCCCGGCGCGGAGTCACCTAGTGCAG | 4530 fluorescence intensity (a.u.)
30 | ATACTCTAAATTAGTGTCCAAACATCCGATGTGACATGGACGGAGTCACCTAGTGCAG | 5080 fluorescence intensity (a.u.)
31 | CTGCGATTCGTCGCGCGGCGTTCTCGCGGGATCCACCGGTCGGAGTCACCTAGTGCAG | 3220 fluorescence intensity (a.u.)
32 | AATTCATCCTATGACGGCTTTACTGAACCTTGATTTATATCGGAGTCACCTAGTGCAG | 3770 fluorescence intensity (a.u.)
33 | GCTTCCTGCGTGACAAGCTGTTGTCCGGGGTGCTCGCCAACGGAGTCACCTAGTGCAG | 32200 fluorescence intensity (a.u.)
34 | CTTCGTTCACTCCGCCTACCTACCTACCTCTGCAGTTGGTCGGAGTCACCTAGTGCAG | 16400 fluorescence intensity (a.u.)
35 | GATGCTTGCATCGATGAAGTCCATCGTCAGATATATATCGCGGAGTCACCTAGTGCAG | 3600 fluorescence intensity (a.u.)
36 | ATATTGATTTGTAACATCACAGACACACATGATCTTTAGCCGGAGTCACCTAGTGCAG | 3530 fluorescence intensity (a.u.)
37 | GAGGAGGTGGCCGCGTCACTCCCCGCTCCGGCGATCCGGCCGGAGTCACCTAGTGCAG | 7790 fluorescence intensity (a.u.)
38 | GGATTACTGGTCTACTACTCCAACCCCGTGGCCACCGTGGCGGAGTCACCTAGTGCAG | 6880 fluorescence intensity (a.u.)
39 | GTGTTCGTTATTCCAGATTGGGAACTTATCCCTTTCCATGCGGAGTCACCTAGTGCAG | 11500 fluorescence intensity (a.u.)
40 | ACATATGGTGCCCACTATATGCCACGTCTGTGAAACCGAGCGGAGTCACCTAGTGCAG | 10600 fluorescence intensity (a.u.)
41 | ACCCACCGCCGCAACACGCGCTCCACCGCCAACACATCGCCGGAGTCACCTAGTGCAG | 4660 fluorescence intensity (a.u.)
42 | TTGCCAAGCTTGAGGACCTTGCCGTGTACCACTTGTAGAACGGAGTCACCTAGTGCAG | 32800 fluorescence intensity (a.u.)

Quoted at random: three records from the list, in no set order.
Row | Sequence | binding signal
42 | TTGCCAAGCTTGAGGACCTTGCCGTGTACCACTTGTAGAACGGAGTCACCTAGTGCAG | 32800 fluorescence intensity (a.u.)
35 | GATGCTTGCATCGATGAAGTCCATCGTCAGATATATATCGCGGAGTCACCTAGTGCAG | 3600 fluorescence intensity (a.u.)
30 | ATACTCTAAATTAGTGTCCAAACATCCGATGTGACATGGACGGAGTCACCTAGTGCAG | 5080 fluorescence intensity (a.u.)
